The match of structure and compound is tentative.
Biological target: bromodomain-containing protein 4 (BRD4) (Homo sapiens, UniProt O60885)
Test: PROTAC degradation by western blot (DC50, MDA-MB-231), blocked by excess JQ1; BD1 reporter and BD1-DCAF11 co-IP
Source text: PROTAC degradation by western blot (DC50, MDA-MB-231), blocked by excess JQ1; BD1 reporter and BD1-DCAF11 co-IP on bromodomain-containing protein 4 (BRD4) | an excess of JQ1 could competitively block the degradation of BRD4 induced by HL435

DC50: 11.9 nM
Compound: Cc1sc2c(c1C)C(c1ccc(Cl)cc1)=N[C@@H](CC(=O)NCCCOCCOCCOCCCNC(=O)COc1ccc(Br)cc1/C=C1\C(=O)Nc3cc(C(F)(F)F)ccc31)c1nnc(C)n1-2

Reference: paper PMC11104598
